Measured values published in paper PMC4248917.
Results are given in words; binding and its absence hold for the method and conditions named.

Chains of the proteins cited; added tags and fusions are not shown. Residues count along the entry.
UniProt P02769, residues 25-607: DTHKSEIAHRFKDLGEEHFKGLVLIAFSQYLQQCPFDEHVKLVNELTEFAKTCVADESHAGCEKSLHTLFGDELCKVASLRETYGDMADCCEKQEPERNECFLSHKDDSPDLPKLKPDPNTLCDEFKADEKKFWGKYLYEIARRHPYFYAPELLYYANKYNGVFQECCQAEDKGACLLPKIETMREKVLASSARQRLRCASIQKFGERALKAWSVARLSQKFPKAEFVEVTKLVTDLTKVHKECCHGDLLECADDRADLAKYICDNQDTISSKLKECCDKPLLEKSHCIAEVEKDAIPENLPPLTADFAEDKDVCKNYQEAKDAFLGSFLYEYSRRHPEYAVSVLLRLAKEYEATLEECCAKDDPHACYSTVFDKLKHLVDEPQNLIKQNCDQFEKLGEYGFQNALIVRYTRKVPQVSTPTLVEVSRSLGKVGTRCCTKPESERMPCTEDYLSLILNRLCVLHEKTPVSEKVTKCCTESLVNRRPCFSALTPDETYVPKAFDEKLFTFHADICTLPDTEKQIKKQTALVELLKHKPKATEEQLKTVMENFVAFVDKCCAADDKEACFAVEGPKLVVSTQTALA
UniProt P06730: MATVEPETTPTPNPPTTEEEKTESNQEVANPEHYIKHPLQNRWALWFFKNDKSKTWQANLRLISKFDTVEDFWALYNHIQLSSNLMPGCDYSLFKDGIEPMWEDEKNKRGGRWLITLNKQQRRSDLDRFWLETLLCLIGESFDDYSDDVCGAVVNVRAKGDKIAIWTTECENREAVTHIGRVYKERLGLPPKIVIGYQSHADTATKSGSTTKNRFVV
UniProt Q04637: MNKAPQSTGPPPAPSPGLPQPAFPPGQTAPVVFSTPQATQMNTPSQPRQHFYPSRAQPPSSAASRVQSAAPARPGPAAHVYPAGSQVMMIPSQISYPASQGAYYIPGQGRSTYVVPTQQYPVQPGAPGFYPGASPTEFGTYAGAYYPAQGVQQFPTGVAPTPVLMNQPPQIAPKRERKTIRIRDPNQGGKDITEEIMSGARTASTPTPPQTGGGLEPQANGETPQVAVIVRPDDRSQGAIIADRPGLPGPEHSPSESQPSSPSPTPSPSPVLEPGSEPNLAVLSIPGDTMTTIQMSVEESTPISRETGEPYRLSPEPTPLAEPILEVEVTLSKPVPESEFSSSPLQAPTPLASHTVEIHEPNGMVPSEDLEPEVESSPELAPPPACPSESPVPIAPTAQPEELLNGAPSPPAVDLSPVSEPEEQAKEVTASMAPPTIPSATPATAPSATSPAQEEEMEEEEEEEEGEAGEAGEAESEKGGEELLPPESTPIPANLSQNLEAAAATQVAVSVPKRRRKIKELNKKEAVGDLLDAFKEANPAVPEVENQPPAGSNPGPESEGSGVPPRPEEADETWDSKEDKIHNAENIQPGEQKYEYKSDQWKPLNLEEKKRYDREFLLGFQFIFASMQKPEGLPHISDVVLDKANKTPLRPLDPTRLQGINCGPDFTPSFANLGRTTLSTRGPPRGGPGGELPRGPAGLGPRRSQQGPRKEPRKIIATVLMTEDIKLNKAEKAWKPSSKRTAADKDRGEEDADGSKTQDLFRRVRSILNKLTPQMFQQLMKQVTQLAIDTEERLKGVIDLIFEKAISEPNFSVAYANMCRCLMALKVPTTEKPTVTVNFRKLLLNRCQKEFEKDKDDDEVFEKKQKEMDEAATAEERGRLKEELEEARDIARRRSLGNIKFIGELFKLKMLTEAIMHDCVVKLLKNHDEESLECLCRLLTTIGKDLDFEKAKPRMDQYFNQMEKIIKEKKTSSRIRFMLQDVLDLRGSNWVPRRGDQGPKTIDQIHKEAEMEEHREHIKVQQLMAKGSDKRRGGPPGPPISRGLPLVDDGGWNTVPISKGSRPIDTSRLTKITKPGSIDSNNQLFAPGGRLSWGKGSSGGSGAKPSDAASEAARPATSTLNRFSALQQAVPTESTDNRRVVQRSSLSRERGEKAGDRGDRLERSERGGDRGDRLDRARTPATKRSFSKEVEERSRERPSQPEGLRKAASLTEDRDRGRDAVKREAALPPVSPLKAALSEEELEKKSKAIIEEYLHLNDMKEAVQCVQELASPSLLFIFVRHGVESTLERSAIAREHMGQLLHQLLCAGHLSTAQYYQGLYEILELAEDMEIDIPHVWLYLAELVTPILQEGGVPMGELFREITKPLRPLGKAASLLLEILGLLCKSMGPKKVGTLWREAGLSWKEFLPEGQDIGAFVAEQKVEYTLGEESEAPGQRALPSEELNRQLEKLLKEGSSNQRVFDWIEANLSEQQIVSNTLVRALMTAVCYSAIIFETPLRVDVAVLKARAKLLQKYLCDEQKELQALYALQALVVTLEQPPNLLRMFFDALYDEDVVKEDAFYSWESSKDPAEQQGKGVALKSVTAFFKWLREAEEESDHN

Legend:
[1] = target: bovine serum albumin (BSA) (bovine) (UniProt P02769); experiment: condition: 10 μg of nuclease-treated cytoplasmic extracts; ELISA; 1 μg of purified recombinant PSaV VPg or BSA coated on plates, incubated 2 h at 4°C with 10 μg of nuclease-treated cytoplasmic extract in 2% BSA in TBS with 0.05% Tween 20; detected with antibodies to eIF4E, eIF4A or eIF4G; only the target purified
[2] = target: bovine serum albumin (BSA) (bovine) (UniProt P02769); experiment: pull-down; 1 μg of His-tagged VPg immobilised on HisPur cobalt resin, or resin alone; blocked with BSA; incubated 4 h at 4°C with recombinant eIF4E or BSA; immunoblot with anti-eIF4E; both purified
[3] = target: bovine serum albumin (BSA) (bovine) (UniProt P02769); experiment: ELISA; 1 μg of purified recombinant PSaV VPg or BSA coated on plates, incubated 2 h at 4°C with increasing concentrations of recombinant eIF4E in 2% BSA in TBS with 0.05% Tween 20; detected with anti-eIF4E; both purified

| Substance | binding [1] | binding [2] | binding [3] |
| --- | --- | --- | --- |
| eIF4E, endogenous in the lysates of the capture ELISA (from UniProt P06730 1-217) | no binding | – | – |
| eIF4G, endogenous in the lysates of the capture ELISA (from UniProt Q04637 1-1599) | no binding | – | – |
| recombinant eIF4E (from UniProt P06730 1-217) | – | no binding | no binding |
